These results are taken from PMC7819943, “Rice protein-binding microarrays: a tool to detect cis-acting elements near promoter regions in rice”.

Protein sequences, listed by entry. Tags and fused reporters are not part of them.
UniProt Q0JBA9, entry or part of it: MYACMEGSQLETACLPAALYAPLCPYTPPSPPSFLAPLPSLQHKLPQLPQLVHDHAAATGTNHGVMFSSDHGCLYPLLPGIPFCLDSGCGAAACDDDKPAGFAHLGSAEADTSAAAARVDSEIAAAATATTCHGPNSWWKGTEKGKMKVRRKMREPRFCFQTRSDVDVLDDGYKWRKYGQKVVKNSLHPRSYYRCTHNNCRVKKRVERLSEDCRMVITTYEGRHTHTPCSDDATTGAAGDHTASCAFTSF

This is one part of the list.

The target in the test is OsWRKY34 (Oryza sativa, UniProt Q0JBA9 1-250). Briefly: protein-binding microarray (RPBM); PBS, 2% BSA, 51.3 ng/ul salmon testes DNA, 50 uM zinc acetate, 200 nM TF, 25 C, 1 h; high values mean tight binding. The settings on record: protein: recombinant; tags: N-terminal polyhistidine and DsRed monomer fusion (pET32a); label: CyDye5-dUTP incorporated in the synthesized complementary strand; 3' TTTTT single-stranded linker to array surface; dsDNA, one strand shown. In a few lines:
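For the binding signal, per-feature fluorescence intensity was read in arbitrary units on an Axon 4000B scanner. Before scanning, a 2% BSA-blocked custom Agilent array made double-stranded with Cy5-dUTP was washed after 1 h at 25 °C with 200 nM protein and 50 µM zinc acetate. The proteins were Ni–NTA-purified transcription factors with N-terminal polyhistidine and DsRed fusions, expressed in E. coli BL21-CodonPlus.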
“TCCCAGATCTTACGTCGTTTACTTTTTTTAAACATATTTACGGAGTCACCTAGTGCAG”: the binding signal was 10300 fluorescence intensity (a.u.).
Then “CTTCACTTTTCCACGGTATCCCGTGAGCTAGCTGCCCTCACGGAGTCACCTAGTGCAG”, with 8640 fluorescence intensity (a.u.); and “TAGACGTAGATGCGTGGTGTGGCCGTAATTTTTTCTTTTTCGGAGTCACCTAGTGCAG”, with 9920 fluorescence intensity (a.u.).
To “GTCATTGATTATTTGTTGTAGCACCTTAAATATTGGTTTTCGGAGTCACCTAGTGCAG” belongs 9060 fluorescence intensity (a.u.).
Then “CACCAAGCATGTCCATGACCTTGCACTCTTGGCTCACTCGCGGAGTCACCTAGTGCAG”, with 8030 fluorescence intensity (a.u.).
Regarding “AATCCGTACATCCCAGCTCATCTTTCCACTCCGGGTTGCCCGGAGTCACCTAGTGCAG”, the binding signal is 10300 fluorescence intensity (a.u.).
Take “CTCTGCCTCTGCTTGCTCTGCTCTGTATCTGTGACCATCTCGGAGTCACCTAGTGCAG”: the binding signal is 12500 fluorescence intensity (a.u.).
“ATTACTGCTGCTTTGACCCCACCACCTCGTCAGTACAAACCGGAGTCACCTAGTGCAG”: the binding signal was 12900 fluorescence intensity (a.u.).
Then “GGTCCTATCTCATACCCAACACCCAACCCAACCCAACCCACGGAGTCACCTAGTGCAG”, with 9210 fluorescence intensity (a.u.); and “TTGATCTGATGAACTCGGGGTCGGCGGCGTTCTTCGGTTTCGGAGTCACCTAGTGCAG”, with 9540 fluorescence intensity (a.u.).
Then “AGTTATGCTAGCTCTGAATTCCTATTGCTTCTTCAGCTGACGGAGTCACCTAGTGCAG”, with 8690 fluorescence intensity (a.u.); and “TTATTTCCTTGTTGTTTCGCTGAATTGTCAGTCAAAAGTACGGAGTCACCTAGTGCAG”, with 10600 fluorescence intensity (a.u.); and “AGCTGATCATATGACTCTTTCTAATATCATCTCTCACAATCGGAGTCACCTAGTGCAG”, with 8910 fluorescence intensity (a.u.).
To “AGTAGTATGAGATTTGGCTGTTTGTTTGGGCATGCGTCCACGGAGTCACCTAGTGCAG” belongs 9140 fluorescence intensity (a.u.).
Take “CACCGCCGTCACTGCCATCCACCACCGGTCACCACCACACCGGAGTCACCTAGTGCAG”: the binding signal was 8840 fluorescence intensity (a.u.).
To “CGGGTGTTGTTGTAAATGCGCGTGTGGTTTGCTTTTTTTTCGGAGTCACCTAGTGCAG” belongs 10200 fluorescence intensity (a.u.); to “ATGTCTGTTGTGGCCTATAATGGAGGTGTTATTTTTTCATCGGAGTCACCTAGTGCAG”, 8070 fluorescence intensity (a.u.); to “GTCATTGTTTGGAGTGGAGTTTTGCTTAGATTAATCTGTCCGGAGTCACCTAGTGCAG”, 8860 fluorescence intensity (a.u.).
For the sequence “GGAAGCCCAAGCCAACCGCCTCGCGACTCCACCGCGTCTCCGGAGTCACCTAGTGCAG”, the binding signal was 8490 fluorescence intensity (a.u.).
As to “TCCATGTGACCACTGTAACACTGTCCTGTTTCCAACACCCCGGAGTCACCTAGTGCAG”, the binding signal is 8030 fluorescence intensity (a.u.).
Regarding “CCCATTGAATTAATTTCGGCGTACATACTGGTGCCTTTTCCGGAGTCACCTAGTGCAG”, the binding signal was 8840 fluorescence intensity (a.u.).
Then “CCCTTGTAGATCCGAAAATTTTCCCTAGTTTTTTTTTTTCCGGAGTCACCTAGTGCAG”, with 11200 fluorescence intensity (a.u.); and “TTTTCCATTCTTGCGCTTCCAAGTATCGAGCCCCAACTTCCGGAGTCACCTAGTGCAG”, with 12400 fluorescence intensity (a.u.); and “TTTTACTCCTTGTTTGTGCCTTTCTTTTCTTCTTTCCTTCCGGAGTCACCTAGTGCAG”, with 10000 fluorescence intensity (a.u.).
Then “GCCTTTTCGCGGACCTTGGATTTGAGGGCGACTTCGGTTCCGGAGTCACCTAGTGCAG”, with 8080 fluorescence intensity (a.u.); and “GTCAATATTGGGTGCTGAGTCTTTAACTTCTCATTTATCCCGGAGTCACCTAGTGCAG”, with 9450 fluorescence intensity (a.u.).
Then “CGTCCTTTTTCTGTTGTCAAGAATCCAAGCTCTCTTCCTTCGGAGTCACCTAGTGCAG”, with 10700 fluorescence intensity (a.u.); and “TTTCTTGACCGCCGCTGATTCCCTCAAAATTTCTGCATATCGGAGTCACCTAGTGCAG”, with 8490 fluorescence intensity (a.u.); and “TTCTCTCCCTCCCGGCCGCCGCCCCGCCCCGCCCATCTTGCGGAGTCACCTAGTGCAG”, with 9110 fluorescence intensity (a.u.).
Consider “TGAGTTGTGCTTTCTATTTTATATCATTGGATGTTCTTAACGGAGTCACCTAGTGCAG”, for which the binding signal was 10600 fluorescence intensity (a.u.).
To “ATTGGGTTCTTGGAGCTGTTGGATTGGGTTTTTTTGGGAGCGGAGTCACCTAGTGCAG” belongs 9180 fluorescence intensity (a.u.); to “AATCTCCTAATTATGTATTGCCCAAATCCATTTATTTTCCCGGAGTCACCTAGTGCAG”, 9430 fluorescence intensity (a.u.).
For “GATGCAGCGGACGGGGCGGGAGGCGGCGGGGTCCGTCTGCCGGAGTCACCTAGTGCAG”, the binding signal was 8420 fluorescence intensity (a.u.).
Then “TTCTAAACCATTCTTGCCGGCACATGCATTCTTTATGACCCGGAGTCACCTAGTGCAG”, with 9350 fluorescence intensity (a.u.); and “ACATACACTACAGCGGCGAACCTTTCCTTATTCTCGCAACCGGAGTCACCTAGTGCAG”, with 12100 fluorescence intensity (a.u.); and “CTCGTTGGTGGTTCTCGCCTTGTTGTCGCTGTTCCCGTGCCGGAGTCACCTAGTGCAG”, with 8980 fluorescence intensity (a.u.).
On to “CGTCCGCTCTCCGGTGCAAAGCGTACCGTTTGACCAATCGCGGAGTCACCTAGTGCAG”, for which the binding signal was 10800 fluorescence intensity (a.u.).
Then “GATCTATCTCAATCAACCCACGTGGCCTCACCTCGCCGGACGGAGTCACCTAGTGCAG”, with 8240 fluorescence intensity (a.u.).
On to “CTCGCCTTTGATCTTATGCAGGGGCCTGACATAGCTTCTTCGGAGTCACCTAGTGCAG”, for which the binding signal was 9470 fluorescence intensity (a.u.).
Then “GATGCCATTTTTAAACAATTCCATGCCTTGTTTCCATTTCCGGAGTCACCTAGTGCAG”, with 13400 fluorescence intensity (a.u.).
To “CAATGATTCCGGTAGTCAAACTTTTACTATTTACACATCCCGGAGTCACCTAGTGCAG” belongs 10000 fluorescence intensity (a.u.).
Then “ATAGAATGTCGTATTTTTTGGATTTCTATAGGATTTTGAACGGAGTCACCTAGTGCAG”, with 10600 fluorescence intensity (a.u.); and “TGGTAAGGTGACACCATGGCAGTACTGTTATAGCTTATCTCGGAGTCACCTAGTGCAG”, with 8390 fluorescence intensity (a.u.); and “ATTTGATGACTCCTTTTTACCCTTTCCACTTTGCAGTTGCCGGAGTCACCTAGTGCAG”, with 11700 fluorescence intensity (a.u.).
Turning to “CCACGTCTTTCCCCACGACCACGACCGTTCATTTCTTTCCCGGAGTCACCTAGTGCAG”, the binding signal was 10400 fluorescence intensity (a.u.).
With “GTAACTTACTTTTTTGTTTCAGCCCCTGTAACTTTCCATTCGGAGTCACCTAGTGCAG”, the binding signal was 9240 fluorescence intensity (a.u.).
To “CTAATTAGCACAGTTGCACACATGTTTTAGCCTTTTGGTCCGGAGTCACCTAGTGCAG” belongs 10600 fluorescence intensity (a.u.).
In the case of “AAATGCCCAGCCTAGCCTGAAACCAACCGCAACGAACGCCCGGAGTCACCTAGTGCAG”, the binding signal was 10300 fluorescence intensity (a.u.).
Then “GGCGGTGGCGGTGACGGTGGAGGTGGAGGCGGTGTGGCATCGGAGTCACCTAGTGCAG”, with 8420 fluorescence intensity (a.u.).
To “TCATCTATGGACTTTCATTAATTTCCCATGTTTATTTTTTCGGAGTCACCTAGTGCAG” belongs 10300 fluorescence intensity (a.u.); to “CAACGAAAATACTAACAACATGCACCTGGCCGCGTTGACCCGGAGTCACCTAGTGCAG”, 13900 fluorescence intensity (a.u.); to “CACAATATTATCCATGCATATCCCTTGGTTTATAATTAATCGGAGTCACCTAGTGCAG”, 8810 fluorescence intensity (a.u.).
Turning to “AGCCGCTCCATCCTTACTGTCCTGGTGAATTAATTGGGTACGGAGTCACCTAGTGCAG”, the binding signal was 11300 fluorescence intensity (a.u.).
Then “CTGCAAAGTAACTTTTTTTTTCTGTTTCCTGTTACGTGATCGGAGTCACCTAGTGCAG”, with 8300 fluorescence intensity (a.u.).
